Results reported in publication PMC5743546 (Biochemistry, 2017).

Assays:
CYP2J2 [1] = molecular target: T1, CYP2J2 (Homo sapiens, UniProt P51589); conditions: read-out: KD of binding to CYP2J2 active site; one-site binding; cited from earlier work
T1 sequence (P51589 1-502): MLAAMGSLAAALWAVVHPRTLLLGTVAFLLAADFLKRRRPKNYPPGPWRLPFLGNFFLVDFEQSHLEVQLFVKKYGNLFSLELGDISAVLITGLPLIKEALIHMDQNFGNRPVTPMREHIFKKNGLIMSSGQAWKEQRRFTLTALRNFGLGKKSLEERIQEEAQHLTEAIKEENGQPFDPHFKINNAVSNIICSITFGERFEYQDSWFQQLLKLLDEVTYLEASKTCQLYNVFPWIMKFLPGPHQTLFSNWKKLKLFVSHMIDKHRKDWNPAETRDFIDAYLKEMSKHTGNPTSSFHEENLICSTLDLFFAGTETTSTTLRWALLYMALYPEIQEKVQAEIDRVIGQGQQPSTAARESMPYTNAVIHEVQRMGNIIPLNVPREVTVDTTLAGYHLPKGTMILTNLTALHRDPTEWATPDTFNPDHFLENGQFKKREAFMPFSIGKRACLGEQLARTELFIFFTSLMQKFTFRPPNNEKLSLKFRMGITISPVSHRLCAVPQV

CYP2J2 [2] = molecular target: T1, CYP2J2; format: binding

- Ki (CYP2J2 [2]): 13.8 ± 1.6 µM
- inhibition of 7-de-aDOX binding to CYP2J2 (in words) (CYP2J2 [2]; 60 μM EBS, 1 μM 7-de-aDOX): did not inhibit
SMILES: CC(C)(C)c1ccc(C(=O)CCCN2CCC(OC(c3ccccc3)c3ccccc3)CC2)cc1 [EBS, ebastine]
- Kd (CYP2J2 [1]): 8.16 µM
